Screen size: about 300,000 compounds; about 5,400 (1.8%) were called active. This list was built around the results that the source calls inconclusive (neither active nor inactive); the mix of calls is not that of the screen. Calls follow the shape of the full dose curve; tested in HEK293 cells. Potencies of inconclusive entries are doubtful fits and often do not repeat.
test: qHTS for inhibitors of binding or entry into cells for Marburg Virus; conditions: Marburg virus pseudotyped entry inhibition, cell reporter; activity change, negative = inhibition: at 37.8 µM (top of the series) unless noted
% is scaled to controls: 0 for no effect and ±100 for the full control effect; potency is read from the fitted curve at half-maximal effect.

SMILES	activity change, negative = inhibition	Potency
CN(C(=O)c1ccc(NC(=O)Cc2ccc(NC(=O)C3CCN(C(=O)C4CCCC4)CC3)cc2)cc1)C1CC1	inactive: -4.02%	–
CC(=C\c1ccccc1)/C=C1/SC(=O)N(CCCC(=O)Nc2ccc(C(=O)O)cc2)C1=O	–	inconclusive: 7.08 µM [inhibitor, full curve, poor fit]
O=C(O)C(CCCCN1C(=O)C2C3C=CC(C3)C2C1=O)N1C(=O)C2C3C=CC(C3)C2C1=O (stereo not drawn)	–	inconclusive: 35.5 µM [activator, single point]
Cc1ccc(C)c(N2CCN(C(=O)C3CCN(C(=O)c4cc5sccc5n4C)CC3)CC2)c1	–	inconclusive: 35.5 µM [inhibitor, single point]
Cc1ccccc1NS(=O)(=O)c1ccc2c(c1)NC(=O)CCS2	–	inconclusive: 2.51 µM [inhibitor, full curve]
Cc1cc(C)c(Cc2c(C)nc3c(C(=O)NCc4ccco4)cnn3c2C)c(C)c1	–	inconclusive: 4.47 µM [inhibitor, full curve, poor fit]
O=C(NNC(=S)Nc1ccc(F)c(Cl)c1)c1ccccc1Br	inactive: 33.2% [at 46.1 µM]	–
C1=C(c2c[nH]c3ccccc23)CCNC1	inactive: 3.06%	–
CC1Cc2cc(/C(O)=C3/C(=O)C(=O)N(CCN4CCOCC4)C3c3cccc(O)c3)ccc2O1 (stereo not drawn)	–	inactive
[O-][n+]1onc2c1CCc1c-2nc(-c2ccccc2)n1OCc1ccccc1	inactive: -19.2%	–
Cc1ccc(OC(C)C(=O)Nc2ccc(C)c(S(=O)(=O)Nc3ccc(C)cc3C)c2)cc1 (stereo not drawn)	–	inconclusive: 23.1 µM [inhibitor, partial curve, poor fit]
O=C(Nc1ccccc1)c1ccccc1CCc1ccccc1	–	inconclusive: 4.61 µM [inhibitor, partial curve, poor fit]
CCCN(CC(=O)Nc1ccccc1C)C(=O)C1CCN(S(=O)(=O)c2ccccc2C(F)(F)F)CC1	inactive: -2.87%	–
O=c1c([N+](=O)[O-])c(NCCN2CCCCCC2)c2ccccc2n1-c1ccccc1	–	inconclusive: 16.4 µM [inhibitor, partial curve, poor fit]
N#Cc1ccccc1Sc1ccccc1C(=O)OCC(N)=O	–	inconclusive: 28.2 µM [activator, single point]
O=S(=O)(c1ccc(Br)cc1)c1nc(-c2cccs2)oc1SCc1ccc(F)cc1	inactive: -13.9% [at 46.1 µM]	–
Cc1ccc(-c2nc(CN(C)C)cc(CN(C)C)c2O)cc1	inactive: -17.5% [at 46.1 µM]	–
Cc1cccc(Cn2cc(C=O)c3ccccc32)c1	–	inconclusive: 3.98 µM [inhibitor, partial curve, poor fit]
Cc1nc2cccc(C(=O)NCc3ccccc3)c2o1	–	inconclusive: 3.16 µM [activator, single point]
Cc1ccc(NC(=O)CSc2nc3c(c(=O)[nH]2)CCC3)cc1Cl	–	inconclusive: 35.5 µM [inhibitor, single point]
COc1ccc(NC(=O)c2oc3ccccc3c2NC(=O)c2ccco2)cc1	–	inconclusive: 7.3 µM [inhibitor, partial curve, poor fit]
CN(C)/C=C/C(=O)c1cccc(C(F)(F)F)c1	–	inconclusive: 7.94 µM [inhibitor, partial curve, poor fit]
O=C(CSc1nnc2scc(-c3ccccc3)n12)Nc1nsc(-c2ccc(Cl)cc2)n1	–	inconclusive: 35.5 µM [inhibitor, single point]

SMILES	activity change, negative = inhibition	Potency
Clc1ccccc1C(c1nnnn1Cc1ccco1)N1CCN(Cc2ccco2)CC1 (stereo not drawn)	–	inconclusive: 15.8 µM [inhibitor, single point]
Cc1ccccc1CN1C(=O)c2ccccc2S(=O)c2ccc(C(=O)NCc3ccco3)cc21 (stereo not drawn)	inactive: 2.5% [at 46.1 µM]	–
O=[N+]([O-])c1cccc2c(S(=O)(=O)N3CCCCC3)cccc12	–	inconclusive: 35.5 µM [inhibitor, single point]
Cc1ccc(S(=O)Cc2ccc(C(=O)NC3CCCCCC3)o2)cc1 (stereo not drawn)	–	inconclusive: 3.16 µM [activator, partial curve, poor fit]
CCCCn1c(SCC(=O)Nc2ccccc2C(F)(F)F)nc2ccsc2c1=O	inactive: -5.41%	–
COc1ccccc1N1CCN(C(=O)c2ccc(Cl)c(S(=O)(=O)N3CCOCC3)c2)CC1	–	inconclusive: 1.41 µM [inhibitor, partial curve, poor fit]
Fc1ccc(CCNC(=S)Nc2ccc(F)cc2)cc1	inactive: 5.23%	–
Cc1cc(C)c2c(N)c(C(=O)c3ccc(Br)cc3)oc2n1	inactive: -9.67% [at 46.1 µM]	–
COC(=O)c1ccc(/C=C/c2nc3ccccc3c(=O)[nH]2)cc1	–	inconclusive: 7.94 µM [activator, partial curve, poor fit]
CCN1c2ccccc2NC2C1C(C(C)=O)C(=O)N2c1ccc(Cl)cc1 (stereo not drawn)	–	inconclusive: 2.06 µM [inhibitor, full curve]
Cc1ccc(N2C(=O)Nc3ccccc3S2(=O)=O)cc1Cl	–	inconclusive: 25.1 µM [inhibitor, single point]
O=C(O)c1cc(-c2ccc3c(c2)OCCO3)n[nH]1	–	inconclusive: 6.31 µM [inhibitor, partial curve, poor fit]
COc1ccc(-c2noc(CCC(=O)NCc3cccnc3)n2)cc1	–	inconclusive: 20.6 µM [activator, single point]
NCCCC(=O)OC1N=C(c2ccccc2Cl)c2cc(Br)ccc2NC1=O (stereo not drawn)	–	inconclusive: 6.31 µM [inhibitor, single point]
O=C(CSc1nnc2c(n1)[nH]c1ccc(S(=O)(=O)N3CCOCC3)cc12)Nc1ccc(F)c(F)c1	–	inconclusive: 25.1 µM [inhibitor, single point]
O=C(c1ccc2c(c1)N(Cc1ccc(F)cc1)C(=O)c1ccccc1S2(=O)=O)N1CCCCCC1	inactive: -15.1% [at 46.1 µM]	–
COc1cccc(-n2c(=O)c3cc(OC)c(OC)cc3n(CC(=O)Nc3ccccc3)c2=O)c1	inactive: 7.23% [at 46.1 µM]	–
c1ccc(-c2noc(-c3cccnc3)n2)nc1	inactive: 1.4%	–
O=c1c(N2CCCCC2)coc2ccccc12	inactive: 18.4%	–
COc1ccc(N=Cc2ccccc2O)cc1	–	inconclusive: 35.5 µM [inhibitor, single point]
Cc1ccc2cc(C#N)c(SCC(=O)N3CCCc4ccccc43)nc2c1	–	inconclusive: 11.2 µM [activator, partial curve, poor fit]
CC(CN1C(C)CCCC1C)OC(=O)c1ccccc1Br (stereo not drawn)	–	inconclusive: 20 µM [inhibitor, single point]
Cc1cccc(OCC(=O)NNC(=O)C2CCN(c3ncnc4sc(C)c(C)c34)CC2)c1	inactive: -28.9%	–

SMILES	activity change, negative = inhibition	Potency
O=C(c1ccc2c(c1)N(Cc1ccc(Cl)cc1)C(=O)c1ccccc1S2(=O)=O)N1CCC(Cc2ccccc2)CC1	–	inconclusive: 22.4 µM [inhibitor, single point]
Cn1cc(CN2CCc3c([nH]c4ccccc34)C2C2CCCCC2)cn1 (stereo not drawn)	–	inconclusive: 35.5 µM [inhibitor, single point]
COc1ccc(CNC(=O)CN(C)S(=O)(=O)c2ccc(Br)s2)cc1	inactive: 5.8% [at 46.1 µM]	–
c1ccc(Nc2ccccc2Nc2ccccn2)nc1	–	inconclusive: 1.16 µM [inhibitor, single point]
CCS(=O)(=O)c1ccc(O)c(NC(=O)COc2ccccc2)c1	inconclusive: 5.12% [activator]	–
C/C(=N\NC(=O)c1ccn(C)n1)c1ccco1	inactive: -3.11% [at 46.1 µM]	–
CCSc1nnc(NC(=O)c2nc(S(=O)(=O)Cc3ccc(F)cc3)ncc2Cl)s1	inactive: 2.53% [at 46.1 µM]	–
O=C1/C(=C/c2ccc(N3CCCC3)cc2)NC(=S)N1C1CC1	–	inconclusive: 4.11 µM [inhibitor, partial curve, poor fit]
CC1Cc2ccccc2N1CC(=O)Nc1ccc(N2CCOCC2)cc1 (stereo not drawn)	–	inconclusive: 5.62 µM [activator, single point]
CN(C)CC1CCC/C(=C\c2ccc(OC(=O)c3ccc(Cl)cc3)cc2)C1=O (stereo not drawn)	–	inconclusive: 35.5 µM [inhibitor, partial curve, poor fit]
O=C(NC1CCN(Cc2ccccc2)CC1)C1CCN(c2nnc(-n3cccc3)s2)CC1	–	inconclusive: 29.1 µM [inhibitor, single point]
CC(C)NS(=O)(=O)c1ccc(OCC(=O)N2CCCC2)cc1	inactive: 9.39%	–
Cc1cc(Cl)ccc1NC(=O)CN1CCC(C(O)(c2ccccc2)c2ccccc2)CC1	–	inconclusive: 29.1 µM [inhibitor, single point]
NS(=O)(=O)c1ccc(NC(=S)Nc2ccc(S(=O)(=O)N3CCCC3)cc2)cc1	inactive: 1.02% [at 46.1 µM]	–
CN(C)S(=O)(=O)c1ccc(C(=O)Nc2c(C(=O)Nc3ccc(F)cc3)oc3ccccc23)cc1	inactive: -4.48% [at 46.1 µM]	–
CCCn1c(/N=C/c2ccccc2O)nc2ccccc21	–	inconclusive: 0.291 µM [inhibitor, full curve, poor fit]
CCOc1ccc(CN2CCCC(C(=O)c3ccccc3OC)C2)cc1 (stereo not drawn)	–	active: 8.91 µM
O=C(N=Nc1c(O)[nH]c2ccc([N+](=O)[O-])cc12)c1cc(-c2ccccc2Cl)nc2ccccc12	–	inconclusive: 25.9 µM [inhibitor, single point]
CCc1nn(C(CC)C(=O)NCC(C)c2ccccc2)c(=O)c2cc3occc3n12 (stereo not drawn)	–	inconclusive: 7.08 µM [inhibitor, full curve]
COC(=O)COc1ccc2c(c1)O/C(=C\c1ccco1)C2=O	inactive: 15.7%	–
COc1ccc(Nc2nc(Nc3ccc(OC)cc3OC)nc(N3CCN(C)CC3)n2)c(OC)c1	–	inconclusive: 35.5 µM [inhibitor, single point]
COc1ccc(NC(=O)Cc2ccc(-c3ccccc3)cc2)cn1	–	inconclusive: 1.78 µM [inhibitor, partial curve, poor fit]

As entered above.
activity change, negative = inhibition with CCS(=O)(=O)c1ccc(O)c(NC(=O)COc2ccccc2)c1 reads inconclusive: 5.12% [activator]
Potency with CCOc1ccc(CN2CCCC(C(=O)c3ccccc3OC)C2)cc1 (stereo not drawn) reads active: 8.91 µM
Potency with CCc1nn(C(CC)C(=O)NCC(C)c2ccccc2)c(=O)c2cc3occc3n12 (stereo not drawn) reads inconclusive: 7.08 µM [inhibitor, full curve]
Potency with O=C(N=Nc1c(O)[nH]c2ccc([N+](=O)[O-])cc12)c1cc(-c2ccccc2Cl)nc2ccccc12 reads inconclusive: 25.9 µM [inhibitor, single point]

Source: PubChem BioAssay AID540276 (National Center for Advancing Translational Sciences (NCATS), 2011)
